## Percent effect of library compounds

Amino acid sequences for entries named in this document (tags omitted). Residues count along the entry.
UniProt P9WFT3, whole entry: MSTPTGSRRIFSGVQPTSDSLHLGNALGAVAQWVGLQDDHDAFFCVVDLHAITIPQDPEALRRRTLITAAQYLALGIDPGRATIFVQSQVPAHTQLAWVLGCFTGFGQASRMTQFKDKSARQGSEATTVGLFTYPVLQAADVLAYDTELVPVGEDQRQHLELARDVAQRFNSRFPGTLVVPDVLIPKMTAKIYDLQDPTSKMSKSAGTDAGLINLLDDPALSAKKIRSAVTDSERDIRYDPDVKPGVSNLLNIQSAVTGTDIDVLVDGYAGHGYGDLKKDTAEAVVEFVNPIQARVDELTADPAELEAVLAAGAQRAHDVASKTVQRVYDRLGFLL
UniProt P9WPC5, whole entry: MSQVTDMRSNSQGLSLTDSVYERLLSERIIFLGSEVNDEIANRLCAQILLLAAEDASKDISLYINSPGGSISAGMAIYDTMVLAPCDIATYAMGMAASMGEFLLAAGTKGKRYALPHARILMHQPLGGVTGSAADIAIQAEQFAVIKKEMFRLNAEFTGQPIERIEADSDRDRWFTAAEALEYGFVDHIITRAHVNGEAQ
UniProt P9WPC3, whole entry partner: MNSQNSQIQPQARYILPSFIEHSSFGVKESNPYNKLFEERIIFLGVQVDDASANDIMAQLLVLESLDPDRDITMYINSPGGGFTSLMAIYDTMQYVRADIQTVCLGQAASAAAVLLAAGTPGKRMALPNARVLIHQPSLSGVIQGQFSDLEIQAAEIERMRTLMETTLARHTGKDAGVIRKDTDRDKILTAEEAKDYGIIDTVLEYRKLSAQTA
UniProt Q8IDJ8, 1-583: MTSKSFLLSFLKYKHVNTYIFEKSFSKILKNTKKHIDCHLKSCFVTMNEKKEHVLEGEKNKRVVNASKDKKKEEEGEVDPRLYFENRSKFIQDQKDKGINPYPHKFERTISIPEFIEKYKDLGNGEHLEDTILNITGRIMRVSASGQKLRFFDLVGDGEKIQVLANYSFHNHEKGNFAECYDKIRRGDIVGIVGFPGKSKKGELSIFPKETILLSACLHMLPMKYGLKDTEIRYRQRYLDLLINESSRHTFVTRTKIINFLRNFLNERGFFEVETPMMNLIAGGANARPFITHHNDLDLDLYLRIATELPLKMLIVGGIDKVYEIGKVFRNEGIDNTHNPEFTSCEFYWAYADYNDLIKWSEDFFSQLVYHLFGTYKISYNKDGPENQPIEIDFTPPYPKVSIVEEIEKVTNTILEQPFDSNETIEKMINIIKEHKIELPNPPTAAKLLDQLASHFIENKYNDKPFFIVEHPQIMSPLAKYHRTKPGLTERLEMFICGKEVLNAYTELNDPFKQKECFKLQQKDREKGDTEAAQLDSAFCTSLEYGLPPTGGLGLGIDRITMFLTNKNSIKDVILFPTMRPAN
UniProt P9WNZ1, whole entry: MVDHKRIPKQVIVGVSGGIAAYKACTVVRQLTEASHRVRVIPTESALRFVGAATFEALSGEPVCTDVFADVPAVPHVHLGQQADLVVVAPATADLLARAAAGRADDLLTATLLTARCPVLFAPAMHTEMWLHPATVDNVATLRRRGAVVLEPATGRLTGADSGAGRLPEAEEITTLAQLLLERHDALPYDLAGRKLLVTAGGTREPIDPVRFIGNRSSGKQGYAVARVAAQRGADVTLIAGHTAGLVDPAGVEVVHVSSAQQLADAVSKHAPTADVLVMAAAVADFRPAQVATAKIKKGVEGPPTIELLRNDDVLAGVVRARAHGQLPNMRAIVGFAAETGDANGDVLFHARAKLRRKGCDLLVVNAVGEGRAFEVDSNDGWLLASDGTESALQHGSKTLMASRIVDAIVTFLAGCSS

MtTrpRS: 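Enzyme assay of tryptophanyl-tRNA synthetase; the read-out is not stated. Target: Tryptophan-tRNA ligase, Mycobacterium tuberculosis (UniProt P9WFT3). Tested at 10 µM. Direction is not recorded; retested compounds ran higher, which suggests that high means inhibition. Of about 65,000 compounds tested this way, about 64 (0.098%) reached 50% or more in at least one test.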
ClpP1P2: 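ClpP1P2, Mycobacterium tuberculosis (UniProt P9WPC5 and UniProt P9WPC3). Protease assay of ClpP1P2, read by the AMC dye that it sets free. Tested at 50 µM. Higher reads as stronger inhibition, judged from the few compounds that gave an IC50. Most other retested compounds had strongly negative values. Size under these conditions: about 69,000 compounds, about 10 of them at 50% or above in at least one test.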
Leishmania in macrophages: 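Cell assay of Leishmania donovani living inside macrophages; the read-out is not stated. Compounds at 30 µM. Direction is inferred from retests: higher values go with stronger inhibition. About 69,000 compounds were tested under these conditions; 1.5% (about 1,000) showed 50% or more at least once.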
PfKRS1: 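Lysine-tRNA ligase, Plasmodium falciparum 3D7 (UniProt Q8IDJ8). Enzyme assay of the cytosolic lysyl-tRNA synthetase in 384-well plates, read by luminescence. Tested at 30 µM. Higher reads as stronger inhibition, judged from the few compounds that gave an IC50. Of about 69,000 compounds tested this way, about 49 (0.071%) reached 50% or more in at least one test.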
CoaBC: 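Enzyme assay of CoaBC with a phosphate dye (Biomol Green) read at 650 nm. Target: Coenzyme A biosynthesis protein CoaBC, Mycobacterium tuberculosis (UniProt P9WNZ1). Concentration: 30 µM. Direction is inferred from only a few compounds that gave an IC50; most scored high, so higher reads as stronger inhibition. Most strong results did not repeat in a second test. Of about 67,000 compounds tested this way, about 40 (0.06%) reached 50% or more in at least one test.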

Values are the deposited “Percent Effect”, in %. The controls that fix the scale are not given in the record; negative values are as filed. The compounds are a random part of those screened. Two or more numbers in one place are separate tests of the same structure; such repeats can differ widely. A dash means the value is not listed here; it may have been measured.

Compound | MtTrpRS | ClpP1P2 | Leishmania in macrophages | PfKRS1 | CoaBC
CCn1ccc(-c2cc(C(=O)O)n3nc(C)c(Cl)c3n2)n1 | 3.507 | -2.295 | -9.788 | -2.401 | 7.159
Cc1ccc2c(c1)OCCCC2NCc1nnc2n1CCCCC2 (configuration not stated) | -0.5029 | -2.565 | 4.883 | 7.191 | 14.54
CCOC(=O)c1nnc2ccccc2c1N1CCN(C(C)C)CC1 | 1.145 | -6.761 | -23.69 | 2.431 | -1.096
[H][C@@]12CCN(C[C@@H]1CN1CCCCC1)[C@@H](CNS(=O)(=O)c1ccccc1)C2 | - | - | -79.68 | - | -
CC(=O)c1ccc(NC(=O)NC(C)c2ccc3c(c2)CC(=O)N3)cc1 (configuration not stated) | 0.000009 | 5.158 | 21.66 | 6.752 | 0.6508
O=C(NCc1cnn(-c2ccc(F)cc2F)c1)C1CCCO1 (configuration not stated) | -13.47 | -8.887 | -31.55 | -3.043 | 8.765
O=C(c1cnc(-c2ccccc2)nc1)N1CCOC2(CCCC2)C1 | -4.721 | -0.6493 | 9.787 | 5.166 | 4.348
COCCN1CCC2(CC1)CC(NC(=O)COC)c1ccccc1O2 (configuration not stated) | -7.558 | -10.83 | - | -0.3909 | 1.416
Cc1ncc(CN2CCC(O)(c3ccccc3F)CC2)cn1 | -6.358 | -5.348 | 14.26 | 0.5264 | -2.102
Cc1ccn(-c2ccccc2NCc2scnc2C)n1 | 1.146 | -1.776 | -0.4509 | 6.255 | 3.526
CC1c2ncc(COCC3CC3)n2CCN1C (configuration not stated) | 0.4937 | -5.781 | - | 7.365 | 2.5
CN(C)c1nc(N2CCCC2)nc2c1CCN(C(=O)c1ccco1)CC2 | -3.111 | 17.12 | - | 4.103 | 4.303
CCCSCC(=O)N1CCCC(c2nccn2Cc2ccncc2)C1 (configuration not stated) | 0.2694 | -9.613 | 12.28 | 5.041 | 6.909
Cc1nc(CN2CCCC(NCc3nc4ccccc4s3)C2)no1 (configuration not stated) | 0 | -27.41 | 0.2644 | 1.543 | 2.452
OC1(Cn2ccc3ncccc32)CCN(Cc2cc(F)cc(F)c2)CC1 | - | -4.387 | 6.283 | 1.753 | 2.206
CC(CO)NC(=O)c1ccc2[nH]/c(=N\S(C)(=O)=O)sc2c1 (configuration not stated) | -0.9646 | 0.5171 | -35.22 | 7.336 | -2.066
Cc1ccc(N2CCCC(NCc3c(C)noc3C)C2)nn1 (configuration not stated) | 5.508 | 1.051 | 31.77 | -0.3752 | -4.021
O=C(CCc1cccs1)N1CCCC(N2CCNC2=O)C1 (configuration not stated) | -5.643 | -2.338 | -2.91 | 1.612 | 3.916
CNC(=O)CN1CCN(C(=O)Nc2ccc(C)s2)CC1 | 0.8596 | 12.41 | 7.414 | 2.006 | 3.187
OC1(CN2CCC(Cc3ncccn3)CC2)CCOCC1 | 16.98 | -14.81 | 5.693 | -2.081 | -4.126
CC(C)N(C)CC(=O)NCC(O)c1cc2ccccc2s1 (configuration not stated) | -2.676 | 3.055 | 0.826 | 5.959 | 9.776
CCc1csc(C2CCCN(C(=O)CCn3cc(C)cn3)C2)n1 (configuration not stated) | 3.627 | -8.169 | -22.9 | 4.885 | 17.47
O=C(O)CN(C(=O)c1ccccc1)[C@H]1C[C@H]2CCOC[C@H]2C1 | - | -1.557 | - | 1.988 | 0.8589
CC(Cn1ccnc1)NCc1csc2c1CCCC2 (configuration not stated) | 0.7452 | -9.859 | -4.582 | 4.579 | 6.112
Cl.O=C(NCC1CCCO1)c1cc(-c2ccncc2)c2cnccc2n1 (configuration not stated) | - | - | 5.929 | - | -
COc1cc(CNCC(O)c2ccc(C)cc2)cc2c1OCCO2.Cl (configuration not stated) | - | - | 37.01 | - | -
COc1ccc(C2CC(=O)Nc3c2nc2n3CCCC2)cc1O (configuration not stated) | 0.7519 | -33.87 | 8.994 | 7.545 | 5.263
CN(Cc1cn2c(n1)CN(C1CCOCC1)CC2)Cc1ccco1 | 9.629 | 0.4742 | - | -2.205 | -2.843
CCOc1ncnc2c1CCN(Cc1cccs1)CC2.O=C(O)C(F)(F)F | - | - | 14.77 | - | -
CC(C)c1nc2oc(C(=O)N3CCOCC3)c(N)c2c2c1CCCC2 | 2.973 | -216.8 | -3.984 | -1.086 | 2.663
Cc1noc(C)c1C(=O)N1CCCC(c2nccn2Cc2cscn2)C1 (configuration not stated) | -0.6522 | -3.995 | 8.106 | 3.076 | 4.946
CN(C)c1ccc(C(=O)Nc2cnn(Cc3ccccn3)c2)cc1 | 1.396 | -1.182 | 14.41 | 7.741 | -1.351
CC(=O)Nc1ccc(-n2cncn2)c(F)c1 | -9.776 | -4.034 | 14.14 | -0.1734 | 1.535
N#Cc1cnc2cc(F)cc(F)c2c1NC1CCN(CC(N)=O)CC1 | -3.018 | 2.095 | 21.49 | 7.042 | -0.4474
Cn1nc(CNC(=O)C2CCC2)cc1C1CC1 | 2.935 | -1.51 | -21.74 | 0.1279 | -0.8424
O=C(NC1CC1)N1CCc2ccc(=O)n(CCN3CCCC3)c2CC1.O=C(O)C(F)(F)F | - | - | -55.01 and 8.456 | - | -
Cc1nc2n(n1)CC(NCc1ccc(Cl)c3cccnc13)CC2 (configuration not stated) | 1.633 | -13.48 | 0.387 | 6.007 | 6.415
CCc1noc(CN(C)CCC(=O)Nc2ccc(C#N)c(Cl)c2)n1 | 0.8227 | -1.386 | 9.952 | 1.259 | 7.495
CN(Cc1ccc(C#N)cc1)c1ncc(C(N)=O)cc1Cl | -1.519 | 5.204 | -22.35 | 5.111 | 5.058
CC(NC1CCN(CC(=O)N(C)C)CC1)c1cnn(C(C)C)c1 (configuration not stated) | -4.351 | -8.83 | -44.29 | -2.765 | 1.646
Cc1nc(N2CCN(C)CC2)ncc1C(=O)N1CCCCCC1 | -1.018 | -11.02 | 12.66 | 5.312 | 0.1318
CN(C)c1nc(N2CCCC2)nc2c1CCN(C(=O)c1ccco1)CC2.O=C(O)C(F)(F)F.O=C(O)C(F)(F)F | - | - | 10.52 | - | -
O=C(c1cnccn1)N1CC2(CCN(Cc3ccsc3)C2)C1 | -1.684 | -20.54 | - | -1.109 | 0.1233
Cc1ccnn1CCNC(=O)c1cnc(N(C)C)nc1 | -3.179 | 27.21 | 1.248 | 0.3984 | 3.154
[H][C@]12CCN(Cc3cc(=O)n4c5c(cccc35)CCC4)C[C@]([H])(CC1)N2 | - | - | 4.455 | - | -
Cc1nc(C)n(C2CCCN(C(=O)c3ccc(F)c(F)c3)C2)n1 (configuration not stated) | -3.774 | -13.71 | 22.12 | -2.413 | 2.117
c1cnc2[nH]c(C3CCCC3)c(CN3CCCCC3)c2c1 | - | 4.226 | -1.719 | 1.877 | -1.471
O=C(c1ccc(F)c(F)c1)N1CCC(Cn2cc(CO)nn2)CC1 | -0.6221 | -12.71 | 14.32 | -0.1838 | -2.058
CS(=O)(=O)CCNCc1ccc(OCc2ccncc2)cc1 | 13.27 | 0.01865 | -20.01 | 0.9873 | 1.932
CC(NCc1cccnc1)c1cc2c(cc1Br)OCCO2 (configuration not stated) | -2.545 | 5.139 | 19.63 | 4.863 | 3.382
O=C(c1ccco1)N1CC2(CCNCC2)c2cc(Cl)ccc21 | 5.473 | 0.1813 | - | -3.829 | -0.4706
O=C(N[C@]12CC1CN(C(=O)c1ccco1)C2)c1ccoc1 (some centres not stated) | -5.093 | -10.62 | -1.635 | 1.055 | 4.071
CC(NC(=O)CCOc1cccc(F)c1)c1nnc2n1CCC2 (configuration not stated) | -3.107 | -15.39 | 14.33 | 0.4023 | 2.212

The first 7 entries again:

{"compound": "CCn1ccc(-c2cc(C(=O)O)n3nc(C)c(Cl)c3n2)n1", "MtTrpRS": 3.507, "ClpP1P2": -2.295, "Leishmania in macrophages": -9.788, "PfKRS1": -2.401, "CoaBC": 7.159}
{"compound": "Cc1ccc2c(c1)OCCCC2NCc1nnc2n1CCCCC2", "stereo": "configuration not stated", "MtTrpRS": -0.5029, "ClpP1P2": -2.565, "Leishmania in macrophages": 4.883, "PfKRS1": 7.191, "CoaBC": 14.54}
{"compound": "CCOC(=O)c1nnc2ccccc2c1N1CCN(C(C)C)CC1", "MtTrpRS": 1.145, "ClpP1P2": -6.761, "Leishmania in macrophages": -23.69, "PfKRS1": 2.431, "CoaBC": -1.096}
{"compound": "[H][C@@]12CCN(C[C@@H]1CN1CCCCC1)[C@@H](CNS(=O)(=O)c1ccccc1)C2", "Leishmania in macrophages": -79.68}
{"compound": "CC(=O)c1ccc(NC(=O)NC(C)c2ccc3c(c2)CC(=O)N3)cc1", "stereo": "configuration not stated", "MtTrpRS": 0.000009, "ClpP1P2": 5.158, "Leishmania in macrophages": 21.66, "PfKRS1": 6.752, "CoaBC": 0.6508}
{"compound": "O=C(NCc1cnn(-c2ccc(F)cc2F)c1)C1CCCO1", "stereo": "configuration not stated", "MtTrpRS": -13.47, "ClpP1P2": -8.887, "Leishmania in macrophages": -31.55, "PfKRS1": -3.043, "CoaBC": 8.765}
{"compound": "O=C(c1cnc(-c2ccccc2)nc1)N1CCOC2(CCCC2)C1", "MtTrpRS": -4.721, "ClpP1P2": -0.6493, "Leishmania in macrophages": 9.787, "PfKRS1": 5.166, "CoaBC": 4.348}

Data taken from ChEMBL document CHEMBL3988442, “University of Dundee, Small-Polar-MMV Screening Library” (2021).